Measurements published in publication PMC9802314.
Residue numbers refer to the chain shown, from its start. In names and notes the source's numbering stands. Results are given in words; binding and its absence hold for the method and conditions named. Some results given as binding are weak or reduced against the parent protein; the word gives no strength. For some of these results: Sequences can lack the tags named with a protein.

T1: Nqo12 D648N (Paracoccus denitrificans) (UniProt P29924)
T1 sequence: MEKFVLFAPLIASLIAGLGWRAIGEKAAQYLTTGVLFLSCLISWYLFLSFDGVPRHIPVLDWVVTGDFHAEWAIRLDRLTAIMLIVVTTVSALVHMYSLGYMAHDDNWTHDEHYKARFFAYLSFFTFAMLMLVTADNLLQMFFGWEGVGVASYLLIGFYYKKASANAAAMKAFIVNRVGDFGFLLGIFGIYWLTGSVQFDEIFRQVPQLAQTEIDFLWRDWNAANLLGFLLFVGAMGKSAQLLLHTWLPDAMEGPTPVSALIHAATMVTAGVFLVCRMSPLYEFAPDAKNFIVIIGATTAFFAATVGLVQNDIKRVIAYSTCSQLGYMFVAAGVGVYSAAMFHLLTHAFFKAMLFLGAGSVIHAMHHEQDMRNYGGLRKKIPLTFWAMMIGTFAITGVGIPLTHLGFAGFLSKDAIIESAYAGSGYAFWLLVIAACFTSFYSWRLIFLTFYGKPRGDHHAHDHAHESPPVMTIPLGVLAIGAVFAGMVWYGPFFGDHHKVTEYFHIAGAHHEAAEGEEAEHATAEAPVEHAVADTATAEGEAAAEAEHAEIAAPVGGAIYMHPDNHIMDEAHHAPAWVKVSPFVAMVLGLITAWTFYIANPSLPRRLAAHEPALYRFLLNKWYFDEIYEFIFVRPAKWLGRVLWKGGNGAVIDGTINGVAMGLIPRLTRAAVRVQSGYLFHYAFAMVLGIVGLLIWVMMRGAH

T2: Nqo12 subunit of Paracoccus denitrificans complex I, wild type (Paracoccus denitrificans) (UniProt P29924)
T2 sequence: T1 sequence with N648D

T3: Nqo5 subunit of Paracoccus denitrificans complex I with a His6 tag (strain Pd-Nqo5^His6) (Paracoccus denitrificans) (UniProt P29917)
T3 sequence: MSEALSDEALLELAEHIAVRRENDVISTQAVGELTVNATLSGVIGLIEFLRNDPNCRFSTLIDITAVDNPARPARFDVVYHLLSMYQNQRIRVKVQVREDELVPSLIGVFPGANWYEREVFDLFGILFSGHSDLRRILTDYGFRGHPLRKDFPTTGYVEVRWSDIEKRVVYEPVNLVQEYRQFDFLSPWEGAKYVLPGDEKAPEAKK

B1: Nqo13 subunit of Paracoccus denitrificans complex I, wild type (protein, UniProt P29925 1-513)
chain: MTNLLSIITFLPIVAAIIMALFLRGQDEAAARNAKWLALLTTTATFVISLFVLFRFDPANTGFQFVEDHAWIMGVCYKMGVDGISVLFVLLTTFMMPLTILSTWQVQDKVKEYMIAFLVLEGLMIGVFTALDLVLFYLFFEAGLIPMFLIIGIWGGKDRIYASFKFFLYTFLGSVLMLVAMIAMYRMAGTTDIPTLLTFDFPSENFRLLGMTVVGGMQMLLFLAFFASFAVKMPMWPVHTWLPDAHVQAPTAGSVLLAAVLLKMGGYGFLRFSLPMFPVASGVAQPYVFWLSAIAIVYTSLVALAQSDMKKVIAYSSVAHMGYVTMGVFAANQIGVDGAIFQMLSHGFISGALFLCVGVIYDRMHTREIDAYGGLVNRMPAYAAVFMFFTMANVGLPGTSGFVGEFLTLMGVFRVDTWVALVATSGVILSAAYALWLYRRVTLGQLIKESLKSITDMTPRERWVFIPLIAMTLILGVYPRLVTDVTGPAVAALVQDYNQSQPAAPVATAQASH
B2: Nqo13 R367H (protein, UniProt P29925 1-513)
chain: B1 chain with R367H
B3: Nqo14 subunit of Paracoccus denitrificans complex I (protein, UniProt P29926 1-499)
chain: MTSLDFSTILPEVVLAGYALAALMAGAYLGKDRLARTLLWVTVAAFLVVAAMVGLGNHVDGAAFHGMFIDDGFSRFAKVVTLVAAAGVLAMSADYMQRRNMLRFEFPIIVALAVLGMMFMVSAGDLLTLYMGLELQSLALYVVAAMRRDSVRSSEAGLKYFVLGSLSSGLLLYGASLVYGFAGTTGFEGIISTIEAGHLSLGVLFGLVFMLVGLSFKVSAVPFHMWTPDVYEGSPTPVTAFFATAPKVAAMALIARLVFDAFGHVIGDWSQIVAALAVMSMFLGSIAGIGQTNIKRLMAYSSIAHMGFALVGLAAGTAIGVQNMLLYMTIYAVMNIGTFAFILSMERDGVPVTDLAALNRFAWTDPVKALAMLVLMFSLAGVPPTLGFFAKFGVLTAAVDAGMGWLAVLGVIASVIGAFYYLRIVYYMYFGGESEGMTSRMGAVQYLALMVPALAMLVGAISMFGVDSAAGRAAETLVGPVAAIEQPAEAAQAEPVQGE
B4: Nqo13 E141Q (protein, UniProt P29925 1-513)
chain: B1 chain with E141Q
B5: Nqo13 K232Q (protein, UniProt P29925 1-513)
chain: B1 chain with K232Q
B6: Nqo13 K263Q (protein, UniProt P29925 1-513)
chain: B1 chain with K263Q
B7: Nqo13 E405Q (protein, UniProt P29925 1-513)
chain: B1 chain with E405Q
B8: Nqo13 H320L (protein, UniProt P29925 1-513)
chain: B1 chain with H320L
B9: Nqo13 H346Q (protein, UniProt P29925 1-513)
chain: B1 chain with H346Q

Biological target: T1, Nqo12 D648N (Paracoccus denitrificans)
Assay: co-purification of the complex (purified by its tag, SEC, SDS-PAGE); complex I purified from membranes of the P. denitrificans Pd-Nqo5^His6 strain as in ref. 24; size-exclusion elution profile compared with wild type; 10 ug of purified complex on SDS-PAGE, Coomassie R250

Binder	binding
B1	binds

Biological target: T2, Nqo12 subunit of Paracoccus denitrificans complex I, wild type (Paracoccus denitrificans)
Assay: as above

Binder	binding
B1	binds
B2	binds
B3	binds
B4	binds
B5	binds
B6	binds
B7	binds
B8	binds
B9	binds

Biological target: T3, Nqo5 subunit of Paracoccus denitrificans complex I with a His6 tag (strain Pd-Nqo5^His6) (Paracoccus denitrificans)
Assay: as above

Binder	binding
B1	binds
B2	binds
B3	binds
B4	binds
B5	binds
B6	binds
B7	binds
B8	binds
B9	binds
